This is one part of the list.

For 54 sequences, binding signal results are on record in article PMC7819943, “Rice protein-binding microarrays: a tool to detect cis-acting elements near promoter regions in rice”.

The assay addresses T1, OsSMF1 (Oryza sativa, UniProt Q6ZLB0 1-436).
T1 sequence: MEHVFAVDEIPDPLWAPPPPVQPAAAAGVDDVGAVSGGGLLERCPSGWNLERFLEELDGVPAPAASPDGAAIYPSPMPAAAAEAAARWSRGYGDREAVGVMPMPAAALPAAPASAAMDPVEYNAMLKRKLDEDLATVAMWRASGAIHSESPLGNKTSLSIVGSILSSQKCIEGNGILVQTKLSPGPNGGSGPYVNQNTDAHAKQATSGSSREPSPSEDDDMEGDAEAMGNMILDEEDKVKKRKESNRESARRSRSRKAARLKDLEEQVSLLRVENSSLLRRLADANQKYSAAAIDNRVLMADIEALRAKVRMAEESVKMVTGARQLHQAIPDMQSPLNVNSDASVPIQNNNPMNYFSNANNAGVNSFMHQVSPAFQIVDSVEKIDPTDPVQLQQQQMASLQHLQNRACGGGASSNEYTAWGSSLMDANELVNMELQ
Put plainly: protein-binding microarray (RPBM); PBS, 2% BSA, 51.3 ng/ul salmon testes DNA, 50 uM zinc acetate, 200 nM TF, 25 C, 1 h; high values mean tight binding. To be noted: protein: recombinant; tags: N-terminal polyhistidine and DsRed monomer fusion (pET32a); chain copies: 2; label: CyDye5-dUTP incorporated in the synthesized complementary strand; 3' TTTTT single-stranded linker to array surface; dsDNA, one strand shown. In a few lines:
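The binding signal is fluorescence intensity per feature, in arbitrary units, read on an Axon 4000B scanner. Polyhistidine- and DsRed-tagged transcription factors (N-terminal fusions) from E. coli BL21-CodonPlus were purified on Ni–NTA and applied at 200 nM for 1 h at 25 °C to a double-stranded, BSA-blocked custom Agilent array in buffer with 50 µM zinc acetate.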
In the case of “TAGTGACCAGCTATTTGTCAGCAATGCTTGGTGCGTTGGACGGAGTCACCTAGTGCAG”, the binding signal was 4096 fluorescence intensity (a.u.).
To “GTGGGTGGGCCGAATCCTTTTGTAAGAGGAGATCAGTAAGCGGAGTCACCTAGTGCAG” belongs 3210 fluorescence intensity (a.u.).
To “CCTTCACATGAGAGAATTGATGACGCCACATGCGAGACCCCGGAGTCACCTAGTGCAG” belongs 3860 fluorescence intensity (a.u.); to “AAAGCATTTCCTTTTCTTTCGAAGATGAAATAAAACAGAGCGGAGTCACCTAGTGCAG”, 3570 fluorescence intensity (a.u.).
With “CACGCACACCACTCGTCAACACCACACCACATATCATCCCCGGAGTCACCTAGTGCAG” the figure was 7220 fluorescence intensity (a.u.); with “ACGCGCAGATCGCCGCGCGCCCGCCTCCCCTCGCAGCCGCCGGAGTCACCTAGTGCAG”, 16300 fluorescence intensity (a.u.); with “TCATATCGTGGCTTTCGCTGACGTAGATTTACATTGGACCCGGAGTCACCTAGTGCAG”, 13800 fluorescence intensity (a.u.).
“AACAGAGGAGTTCTTCACTCAGTGTCTTTCTAAACAAGGGCGGAGTCACCTAGTGCAG”: the binding signal is 3920 fluorescence intensity (a.u.).
With “TTGCTCACCTGAACAATGAACATGCATGTTCAGGACATCACGGAGTCACCTAGTGCAG” the figure was 3150 fluorescence intensity (a.u.).
With “CAGACAATGCCAATCCTTTGGTCAGCATCTAGCAAGCAATCGGAGTCACCTAGTGCAG” the figure was 3200 fluorescence intensity (a.u.).
With “CTGTGGACTGTGTGGCATGTATGCTGACCTTTTGTTTTGCCGGAGTCACCTAGTGCAG” the figure was 3140 fluorescence intensity (a.u.).
As for “GCACGTTGCACGCCATGGCGAGGCACTCGGTGACGCCGGCCGGAGTCACCTAGTGCAG”, the binding signal is 3390 fluorescence intensity (a.u.).
To “AAATGACTTTCTCGTCTTATGCTGACTTCATCTTCATTTTCGGAGTCACCTAGTGCAG” belongs 4740 fluorescence intensity (a.u.); to “TCTCCAGTTTCTGGCCAGCGAGGCATGATAGCCACCTCAACGGAGTCACCTAGTGCAG”, 3280 fluorescence intensity (a.u.).
With “ATGAAGCTTTACGTAAGCGGTGACGAAGCAAGTGCACATGCGGAGTCACCTAGTGCAG” the figure was 5480 fluorescence intensity (a.u.); with “CTAATGATCATTCATGTGAATATGACATTTCACCCGGAAACGGAGTCACCTAGTGCAG”, 3160 fluorescence intensity (a.u.).
To “GAGGGAGGCGGCAATGATCTCCTCGACCTCTCGCTACTCCCGGAGTCACCTAGTGCAG” belongs 3210 fluorescence intensity (a.u.); to “GACTTCAAGACACAATGTGTGTATGACAGGTTGGACCATACGGAGTCACCTAGTGCAG”, 4340 fluorescence intensity (a.u.).
With “TCCACACCAACCAATCGCAAATCACGCCGACGTGGAGCGCCGGAGTCACCTAGTGCAG”, the binding signal is 14500 fluorescence intensity (a.u.).
To “GGCCCTTGGTGAGGTGGATGGAGACGGCGTGGGACTTGACCGGAGTCACCTAGTGCAG” belongs 4850 fluorescence intensity (a.u.); to “CATACCGACATACGTATACATTGACATCATCATTGACGTGCGGAGTCACCTAGTGCAG”, 4680 fluorescence intensity (a.u.).
To “CACTCACTGGCTGCACGTCATTTGATTATGCATTTTCCGGCGGAGTCACCTAGTGCAG” belongs 6260 fluorescence intensity (a.u.); to “TTATATACGTGTTCTCGGTGACTTAAAAGCCAATGCTTAACGGAGTCACCTAGTGCAG”, 3140 fluorescence intensity (a.u.); to “AGGCCTAACGTGGGCCAGGCCACTATATGCAGATGGGCTACGGAGTCACCTAGTGCAG”, 3330 fluorescence intensity (a.u.).
To “GAAGCCGTAGTCGGAGCCGTCCATGTGGCCGGCTGGAGCTCGGAGTCACCTAGTGCAG” belongs 4390 fluorescence intensity (a.u.); to “ATTTCAATGTCAAGATGAGAAGGGAATTTAAGAGCCTGCACGGAGTCACCTAGTGCAG”, 22800 fluorescence intensity (a.u.).
Turning to “ATTTCAGGCGCCGCTCGGCACGGCCGTGTCACGACGCGATCGGAGTCACCTAGTGCAG”, the binding signal was 4510 fluorescence intensity (a.u.).
Regarding “GTTGCGGCGGGCGTGCGCTGCGGATCCCGGTGGCAGCACGCGGAGTCACCTAGTGCAG”, the binding signal is 3780 fluorescence intensity (a.u.).
To “ACTATGTTCACGAGTCATACGGTCGGATCATACAAGATTGCGGAGTCACCTAGTGCAG” belongs 3570 fluorescence intensity (a.u.).
With “TATATAACCTAAAATGGAGGAAGTAGGAAATATGTAATTCCGGAGTCACCTAGTGCAG” the figure was 4630 fluorescence intensity (a.u.); with “CTAGTTCCAGATGATCCAGCTGAGAGCTCCAAGGCTATTCCGGAGTCACCTAGTGCAG”, 22800 fluorescence intensity (a.u.).
With “CCTCTACGGGTTGCAAGTGGCCACGCACAGTTGCGTTGGTCGGAGTCACCTAGTGCAG” the figure was 4010 fluorescence intensity (a.u.); with “CGTCAGATACTGCGGTGATAATGTATACAAGTGGCAGCACCGGAGTCACCTAGTGCAG”, 4830 fluorescence intensity (a.u.); with “ATGGTTTTACACACATACAGATGATGTAATCATGTAATCCCGGAGTCACCTAGTGCAG”, 5840 fluorescence intensity (a.u.).
On to “CCTTCACCTGTCTCCCATATGCGGCGTCACCCCACCTGATCGGAGTCACCTAGTGCAG”, for which the binding signal was 4690 fluorescence intensity (a.u.).
With “CCATCCACCATTCACTTTCCCACCTACCTCCACTATTTATCGGAGTCACCTAGTGCAG” the figure was 3430 fluorescence intensity (a.u.).
To “AAATTGGGGAACACTGTTCCTAGTAAGCAAAAGCTTCTTCCGGAGTCACCTAGTGCAG” belongs 4200 fluorescence intensity (a.u.).
Consider “GTCGCCTCCCACGAACATGCCGCGTCGACGACGGCATGCACGGAGTCACCTAGTGCAG”, for which the binding signal is 4740 fluorescence intensity (a.u.).
As to “ACTTATGATATGAAACGGAGAGAGTAGTAGATAAGATTTTCGGAGTCACCTAGTGCAG”, the binding signal was 28400 fluorescence intensity (a.u.).
To “CACTTATTTTGCAACGGAGGTAGTATACAAGGCAACTGGTCGGAGTCACCTAGTGCAG” belongs 4230 fluorescence intensity (a.u.).
To “CTCTTCTCCTTTTCTTCCCTGTCATCTGTGAGCTTTTGCTCGGAGTCACCTAGTGCAG” belongs 3610 fluorescence intensity (a.u.); to “TCGACTCTGCCGGTGAGAGCGGTAGCGCGTGGCGGCCGTACGGAGTCACCTAGTGCAG”, 3640 fluorescence intensity (a.u.).
To “CTTTTCTTGTATATAAACGCGACCTTATAAAATTACTAGTCGGAGTCACCTAGTGCAG” belongs 22600 fluorescence intensity (a.u.); to “GGCTCCGGCTGCGCCGCGTCAACCGGCGGCACGAGGTGGGCGGAGTCACCTAGTGCAG”, 3920 fluorescence intensity (a.u.); to “GTCTCATTGTCCTCTAACGTGTGTCACTAACATATAGTTCCGGAGTCACCTAGTGCAG”, 3770 fluorescence intensity (a.u.).
On to “TTCAGTTCAAGCTGCCGTGTCAGGCTGCAACAAGGTAATCCGGAGTCACCTAGTGCAG”, for which the binding signal is 5650 fluorescence intensity (a.u.).
Take “TTTAACACGTAATTGATCATGACTCATGAGCTAATCATCCCGGAGTCACCTAGTGCAG”: the binding signal is 6980 fluorescence intensity (a.u.).
Consider “CGACACTTGCAGTAATCTATAACGAGTAACCAAAATTCGACGGAGTCACCTAGTGCAG”, for which the binding signal was 8700 fluorescence intensity (a.u.).
To “CCTGTGTGTTGGTGCTGTCGGTATGTGGGTGGTGGTATTTCGGAGTCACCTAGTGCAG” belongs 3990 fluorescence intensity (a.u.).
“AAGTTTGTTTTGTCACGCCACCCAGGCTGACGCGACAACACGGAGTCACCTAGTGCAG”: the binding signal was 8290 fluorescence intensity (a.u.).
To “TTGGAGTTCTACAACCGACAGGTGCATGTTTCTCTGTACTCGGAGTCACCTAGTGCAG” belongs 19400 fluorescence intensity (a.u.).
To “TTGCAACCCACAAATATATGTGAGGCCACGTCATCGAGAACGGAGTCACCTAGTGCAG” belongs 19500 fluorescence intensity (a.u.); to “GTAGACGGCGGAGGGCTCGCTGCGGGAGGGCTTGGAGTGGCGGAGTCACCTAGTGCAG”, 3760 fluorescence intensity (a.u.).
To “CAGGCATGGTTCGGCCTGCCCTGTCACGGCCCATCTCGTGCGGAGTCACCTAGTGCAG” belongs 4240 fluorescence intensity (a.u.).
